Data as given in PMC6925144, “A prospective compound screening contest identified broader inhibitors for Sirtuin 1” (Scientific Reports, 2019).
Whole data set: some 3,200 compounds, median “TSA(without NAD+) / Primary screening (TSA) / delta Tm (K)” near -0.07, cut for the highest 2% near 0.37. The list shows a part of the results.

Sequences of proteins named here, by UniProt entry; tags and fusion partners are left off. Residues count along the entry.
UniProt Q96EB6, 2-747 limits assumed: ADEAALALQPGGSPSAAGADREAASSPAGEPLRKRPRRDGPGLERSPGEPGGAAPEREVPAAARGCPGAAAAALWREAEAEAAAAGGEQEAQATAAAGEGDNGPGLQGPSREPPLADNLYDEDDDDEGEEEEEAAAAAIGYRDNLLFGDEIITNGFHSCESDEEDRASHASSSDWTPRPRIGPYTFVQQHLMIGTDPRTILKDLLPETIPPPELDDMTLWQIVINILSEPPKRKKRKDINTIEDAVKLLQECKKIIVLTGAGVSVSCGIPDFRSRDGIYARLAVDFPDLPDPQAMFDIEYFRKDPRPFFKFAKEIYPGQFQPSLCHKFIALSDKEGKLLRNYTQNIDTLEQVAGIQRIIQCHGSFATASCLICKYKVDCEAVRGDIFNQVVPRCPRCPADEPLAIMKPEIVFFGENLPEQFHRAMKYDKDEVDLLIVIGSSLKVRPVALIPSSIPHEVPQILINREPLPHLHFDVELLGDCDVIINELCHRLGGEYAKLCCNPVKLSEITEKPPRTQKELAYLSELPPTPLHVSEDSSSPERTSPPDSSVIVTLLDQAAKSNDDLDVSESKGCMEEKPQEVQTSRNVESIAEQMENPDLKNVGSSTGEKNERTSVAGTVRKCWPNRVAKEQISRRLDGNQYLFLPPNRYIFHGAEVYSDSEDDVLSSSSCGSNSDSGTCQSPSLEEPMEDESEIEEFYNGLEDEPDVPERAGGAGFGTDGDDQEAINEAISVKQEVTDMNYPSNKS

Molecular target: NAD-dependent deacetylase Sirtuin 1 (human, UniProt Q96EB6)
Experiment: primary screen, delta tm
Set-up: single well (n = 1)
Settings: 10 µM
Procedure, shortened: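 Thermal shift of Sirtuin 1 measured without NAD+, compound at 10 µM (n = 1); value is ΔTm, with hits defined as ΔTm > 0.45 K or < −1.5 K. Hits retested at 5, 10, 20 µM (n = 4) and counterscreened on bovine carbonic anhydrase and ABL1 SH2 domain.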

SMILES | TSA(without NAD+) / Primary screening (TSA) / delta Tm (K)
COc1ccc(O)c(/C(C)=N/Nc2nc(C)cc(O)n2)c1 | -0.03 K
NC(=O)c1ccc(NC(=O)c2cc(-c3ccccc3)nc3ccccc23)cc1 | -0.08 K
CCOCCCN1C(=O)/C(=C/c2c(N3CCC(C)CC3)nc3ccc(C)cn3c2=O)SC1=S | -0.04 K
O=c1cc(CSc2nnc(Nc3ccccc3)s2)c2ccc(O)cc2o1 | 0.38 K
COc1ccc(C(CN2CCN(C)CC2)NC(=O)OC(C)(C)C)cc1 (centres unmarked) | -0.02 K
CCOc1ccc2nc(NN=C3C(=O)NC(=S)NC3=O)sc2c1 | -0.07 K
COc1ccc(-c2csc3nc(C)nc(N4CCN(C5CCS(=O)(=O)C5)CC4)c23)cc1OC (centres unmarked) | -0.03 K
O=C1CCCCC(C(=O)Nc2ccc(-c3nc4ccccc4[nH]3)cc2)N1 (centres unmarked) | -0.03 K
CC1CCC1N (centres unmarked) | -0.21 K
CCN(C(=O)CSc1nnc(-c2ccccc2Cl)n1C1CCCC1)C1CCS(=O)(=O)C1 (centres unmarked) | -0.15 K
O=C1C(=O)N(CCOc2ccc3ccccc3c2)c2ccccc21 | -0.31 K
COc1ccc(C)cc1-c1nnc(S)n1N | -0.15 K
Cc1cc(-c2nc3cc(F)ccc3n2C)ccc1NC(=O)C1CCCN1C(=O)C(C)C (centres unmarked) | 0.12 K
O=C(NCc1nc2ccccc2[nH]1)C(O)(c1ccccc1)c1ccccc1 | 0.07 K
Cc1cc(C)c2c(N)c(C(=O)NN=C3C4CC5CC(C4)CC3C5)sc2n1 | -0.22 K
Cc1ccc2[nH]c(-c3cccs3)c(CCC(=O)N3CCC(C(=O)Nc4ccccc4)CC3)c2c1 | 0.09 K
Cc1csc2c(N3CC4CCCN4CC3C)ncnc12 (centres unmarked) | -0.13 K
CON(C)C(=O)c1cc2c(C)nn(C)c2nc1C | 0.25 K
COc1ccc(C2=CCN(C(=O)Cn3cc(C)c4ccccc43)C2)cc1 | 0.09 K
COC(=O)c1cc(NC(=O)CN2CCC(C(N)=O)CC2)cc(C(=O)OC)c1 | -0.33 K

SMILES | TSA(without NAD+) / Primary screening (TSA) / delta Tm (K)
Cc1ccc2c(CC(=O)Nc3cc(C(N)=O)ccc3N3CCCC3)coc2c1 | -0.12 K
CC(C)Oc1ccc(C(=O)C2=C(O)C(=O)N(CCCN3CCOCC3)C2c2ccc(F)cc2)cc1 (centres unmarked) | -0.03 K
Nc1ccccc1-c1nc(C2CC2)n[nH]1 | -0.12 K
O=C(Cn1nc(-c2ccccc2)ccc1=O)Nc1cc(-c2cccs2)nn1-c1ccccc1 | -0.02 K
Cc1cc(N2CCN(Cc3nc4ccccc4s3)CC2)n2ncnc2n1 | -0.08 K
O=C(CN1CCC(Cc2ccccc2)CC1)NCc1ccc(F)cc1 | -0.15 K
CC(O)CCN (centres unmarked) | -0.13 K
COc1cc(/C=C/C(=O)Nc2ccc3c(c2)OCCO3)cc(OC)c1 | -0.08 K
O=C(CC12CC3CC(CC(C3)C1)C2)NNC(=O)c1ccc(S(=O)(=O)N2CCc3ccccc3C2)cc1 | 0.19 K
COc1cc(CNC(=O)NCCC2=CCCCC2)ccn1 | -0.05 K
O=C(Cn1c(C(F)(F)F)nc2ccccc21)N/N=C1/C(=O)N(Cc2ccc(Cl)cc2)c2ccccc21 | 0.15 K
NC(=O)COC(=O)C12CC3CC(C1)CC(c1ccccc1)(C3)C2 | -0.13 K
NC(=O)c1cccc(NC(=O)C2CCN(S(=O)(=O)c3cccs3)CC2)c1 | 0.05 K
O=S(=O)(O)CC(O)CO (centres unmarked) | -0.18 K
CC(=O)Cn1c(CN2CCC(C(N)=O)CC2)nc2c1c(=O)n(C)c(=O)n2C | -0.02 K
CC(c1ccc(S(N)(=O)=O)cc1)N(C)Cc1nc2ccccc2c(=O)[nH]1 (centres unmarked) | -0.15 K
CCCN1CCN(CCCOc2ccccc2)CC1 | 0.13 K
Cc1[nH]c2ccc(C(=O)N3CCCC(C(N)=O)C3)cc2c1C (centres unmarked) | 0.22 K
COc1ccc(C2C(C(=O)c3cc4ccccc4o3)=C(O)C(=O)N2CCN2CCOCC2)cc1 (centres unmarked) | 0.02 K
CC(C)NC(=O)Cn1cc(C(=O)C2CCCCC2)c2ccccc21 | -0.03 K

3 compounds from above, sorted by molar mass, largest number first.
SMILES | TSA(without NAD+) / Primary screening (TSA) / delta Tm (K)
COc1ccc(C2C(C(=O)c3cc4ccccc4o3)=C(O)C(=O)N2CCN2CCOCC2)cc1 (centres unmarked) | 0.02 K
COc1cc(CNC(=O)NCCC2=CCCCC2)ccn1 | -0.05 K
O=S(=O)(O)CC(O)CO (centres unmarked) | -0.18 K

Continued:

SMILES | TSA(without NAD+) / Primary screening (TSA) / delta Tm (K)
CONC(=O)c1ccc2[nH]c(C)c(C)c2c1 | -0.12 K
O=C(Cn1[nH]c(=O)ccc1=O)OCc1ncc(-c2cccc(Cl)c2)o1 | -0.04 K
Nc1ncnc2c1ncn2CC(=O)O | -0.18 K
CNC(=O)C(C)CN(C)c1ccc(Br)cc1C#N (centres unmarked) | -0.17 K
O=C(c1ccc2nnnn2c1)N(Cc1ccc(O)cc1)Cc1ccco1 | -0.18 K
CN(c1ccccc1)S(=O)(=O)c1cccc(NC(=O)COC(=O)C23CC4CC(CC(C4)C2)C3)c1 | -0.02 K
CN(c1ccccc1)S(=O)(=O)c1ccc(C(=O)NNC(=O)C23CC4CC(CC(C4)C2)C3)cc1 | 0.03 K
NC(=O)c1ccc(NC(=O)COC(=O)c2cc3c(s2)CCCCC3)cc1 | -0.14 K
O=C(Nc1ccccc1Oc1ccccc1)c1cc(=O)c2ccccc2o1 | 0.07 K
NC(=O)CCn1cnc2sccc2c1=O | 0.07 K
CN(CC(=O)NCc1ccco1)C(=O)c1ccc(-n2cccn2)cc1 | 0.02 K
Cc1ccc(C(=O)C2=C(O)C(=O)N(CCCN3CCOCC3)C2c2ccc(Cl)cc2)cc1 (centres unmarked) | 0.18 K
NC(=O)C1COCCN1S(=O)(=O)c1c(Cl)nc2ccccn12 (centres unmarked) | 0.23 K
CC(NC(=O)CN1C(=O)C2CC=CCC2C1=O)C12CC3CC(CC(C3)C1)C2 (centres unmarked) | -0.14 K
CCC(C)(O)CN (centres unmarked) | -0.23 K
O=C1CN(c2ncnc3c2oc2ccccc23)CCN1 | -0.07 K
O=C(/C=C/c1cn(-c2ccccc2)nc1-c1cc2ccccc2o1)NCc1nnc2ccccn12 | 0.19 K
CCOc1nc2cc(C(=O)OC(C)Cn3cccn3)ccc2[nH]1 (centres unmarked) | -0.15 K
O=C(C1=C(O)C(=O)N(CCCN2CCOCC2)C1c1ccco1)c1ccco1 (centres unmarked) | -0.22 K
